Drug screen on melanoma cell lines: apoptosis marker

From a melanoma drug combination screen (doi:10.1371/journal.pone.0140310); values rounded.

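Human melanoma cell lines in 1,536-well plates were treated with a pair of drugs for 72 h, then fixed, stained and imaged. Values are the share of nuclei positive for cleaved PARP as a percentage of the same share in the DMSO control: 100 is the control level, higher means more apoptosis. Every drug was used at one fixed concentration, the higher of two screened. No replicate spread is given; individual values may be noisy. The marker varies much from line to line, for technical or biological reasons.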
An unselected part of the screen is shown.
An entry leaves out what has no value listed here.
A dash means that no value is listed here.

All values are for the listed drug together with nilutamide (5000 nM): CC1(C)NC(=O)N(c2ccc([N+](=O)[O-])c(C(F)(F)F)c2)C1=O

Compounds and concentrations:
VX-702 (2000 nM): NC(=O)c1ccc(N(C(N)=O)c2c(F)cccc2F)nc1-c1ccc(F)cc1F
STA-4783 (30 nM): CN(NC(=O)CC(=O)NN(C)C(=S)c1ccccc1)C(=S)c1ccccc1
perifosine (2000 nM): CCCCCCCCCCCCCCCCCCOP(=O)([O-])OC1CC[N+](C)(C)CC1
FH535 (5000 nM): Cc1cc([N+](=O)[O-])ccc1NS(=O)(=O)c1cc(Cl)ccc1Cl
midostaurin (400 nM): CO[C@@H]1[C@H](N(C)C(=O)c2ccccc2)C[C@H]2O[C@]1(C)n1c3ccccc3c3c4c(c5c6ccccc6n2c5c31)C(=O)NC4
OSU-03012 (5000 nM): NCC(=O)Nc1ccc(-n2nc(C(F)(F)F)cc2-c2ccc3c(ccc4ccccc43)c2)cc1
NVP-BEZ235 (20 nM): Cn1c(=O)n(-c2ccc(C(C)(C)C#N)cc2)c2c3cc(-c4cnc5ccccc5c4)ccc3ncc21
lestaurtinib (20 nM): C[C@]12O[C@H](C[C@]1(O)CO)n1c3ccccc3c3c4c(c5c6ccccc6n2c5c31)CNC4=O
darinaparsin (2000 nM): C[As](C)SC[C@H](NC(=O)CC[C@H](N)C(=O)O)C(=O)NCC(=O)O
gemcitabine (2 nM): Nc1ccn([C@@H]2O[C@H](CO)[C@@H](O)C2(F)F)c(=O)n1
NVP-TAE684 (400 nM): COc1cc(N2CCC(N3CCN(C)CC3)CC2)ccc1Nc1ncc(Cl)c(Nc2ccccc2S(=O)(=O)C(C)C)n1
decitabine (500 nM): Nc1ncn([C@H]2C[C@H](O)[C@@H](CO)O2)c(=O)n1
A-769662 (10000 nM): N#Cc1c(O)c2c(-c3ccc(-c4ccccc4O)cc3)csc2[nH]c1=O
vorinostat (400 nM): O=C(CCCCCCC(=O)Nc1ccccc1)NO
vincristine (0.5 nM): CC[C@]1(O)C[C@H]2CN(CCc3c([nH]c4ccccc34)[C@@](C(=O)OC)(c3cc4c(cc3OC)N(C=O)[C@H]3[C@@](O)(C(=O)OC)[C@H](OC(C)=O)[C@]5(CC)C=CCN6CC[C@]43[C@@H]65)C2)C1
IMD-0354 (80 nM): O=C(Nc1cc(C(F)(F)F)cc(C(F)(F)F)c1)c1cc(Cl)ccc1O
L-779450 (1000 nM): Oc1cc(-c2nc(-c3ccccc3)[nH]c2-c2ccncc2)ccc1Cl
LFM-A13 (10000 nM): C/C(O)=C(\C#N)C(=O)Nc1cc(Br)ccc1Br
embelin (6000 nM): CCCCCCCCCCCC1=C(O)C(=O)C=C(O)C1=O
CP-690550 (5000 nM): C[C@@H]1CCN(C(=O)CC#N)C[C@@H]1N(C)c1ncnc2[nH]ccc12
lapatinib (4000 nM): CS(=O)(=O)CCNCc1ccc(-c2ccc3ncnc(Nc4ccc(OCc5cccc(F)c5)c(Cl)c4)c3c2)o1
nutlin-3 (500 nM): COc1ccc(C2=N[C@@H](c3ccc(Cl)cc3)[C@@H](c3ccc(Cl)cc3)N2C(=O)N2CCNC(=O)C2)c(OC(C)C)c1
pazopanib (2000 nM): Cc1ccc(Nc2nccc(N(C)c3ccc4c(C)n(C)nc4c3)n2)cc1S(N)(=O)=O
etoposide (100 nM): COc1cc([C@@H]2c3cc4c(cc3[C@@H](O[C@@H]3O[C@@H]5CO[C@@H](C)O[C@H]5[C@H](O)[C@H]3O)[C@H]3COC(=O)[C@H]23)OCO4)cc(OC)c1O
sorafenib (2000 nM): CNC(=O)c1cc(Oc2ccc(NC(=O)Nc3ccc(Cl)c(C(F)(F)F)c3)cc2)ccn1
pioglitazone (10000 nM): CCc1ccc(CCOc2ccc(CC3SC(=O)NC3=O)cc2)nc1 (stereo unspecified)
tozasertib (30 nM): Cc1cc(Nc2cc(N3CCN(C)CC3)nc(Sc3ccc(NC(=O)C4CC4)cc3)n2)n[nH]1
BI-78D3 (1000 nM): O=c1[nH]nc(Sc2ncc([N+](=O)[O-])s2)n1-c1ccc2c(c1)OCCO2
cisplatin (8000 nM): N.N.[Cl][Pt][Cl]
cediranib (2000 nM): COc1cc2c(Oc3ccc4[nH]c(C)cc4c3F)ncnc2cc1OCCCN1CCCC1
stibogluconate (10000 nM): O=C(O)[C@@H]1[O][Sb](=[O])([O][Sb]2(=[O])[O][C@H]([C@H](O)CO)[C@H](O)[C@H](C(=O)O)[O]2)[O][C@H]([C@H](O)CO)[C@@H]1O (stereo partly specified)
selumetinib (75 nM): Cn1cnc2c(F)c(Nc3ccc(Br)cc3Cl)c(C(=O)NOCCO)cc21
BMS-536924 (1000 nM): Cc1cc(N2CCOCC2)cc2[nH]c(-c3c(NC[C@@H](O)c4cccc(Cl)c4)cc[nH]c3=O)nc12
dorsomorphin (2000 nM): c1cc(-c2cnn3cc(-c4ccc(OCCN5CCCCC5)cc4)cnc23)ccn1
U73122 (2000 nM): COc1ccc2c(c1)CCC1C2CCC2(C)C(NCCCCCCN3C(=O)C=CC3=O)CCC12 (stereo unspecified)

Partner	WM451Lu	WM115	UACC-62	RVH-421	LB2518-MEL	501mel	WM3526	A101D	WM1716	MeWo
vincristine	386	956	150	77.3	145	-	936	173	1160	338
cediranib	41.1	82.0	92.4	153	69.0	-	89.2	228	84.9	82.7
A-769662	69.1	101	54.9	177	53.4	131	46.3	64.1	99.2	38.3
lestaurtinib	45.0	134	63.5	88.0	85.6	-	337	127	127	97.7
BI-78D3	79.2	50.2	72.3	142	75.1	-	46.7	177	150	30.9
stibogluconate	81.9	102	103	24.5	59.5	-	108	30.2	86.9	99.2
BMS-536924	50.3	51.2	152	91.6	118	-	96.7	189	121	130
OSU-03012	329	553	84.8	184	110	-	286	92.8	31.8	67.8
decitabine	322	87.5	156	124	69.5	-	144	171	192	168
CP-690550	26.7	66.1	115	110	43.7	-	69.1	31.7	128	71.4
pioglitazone	29.5	98.9	107	59.7	90.0	59.4	92.2	300	50.1	70.7
selumetinib	74.0	99.6	116	86.1	113	-	159	231	162	132
L-779450	233	263	75.1	119	75.7	148	371	42.3	92.2	40.7
cisplatin	123	174	102	96.2	73.5	-	102	121	270	87.9
gemcitabine	158	236	81.2	130	133	-	102	74.5	606	244
VX-702	59.6	93.8	126	39.4	93.2	-	134	46.4	20.7	81.0
U73122	70.5	55.4	62.3	172	58.7	103	132	230	17.8	83.1
STA-4783	190	1580	152	125	343	-	64.6	167	36.3	1550
IMD-0354	88.5	154	135	214	60.2	-	106	40.1	62.0	105
sorafenib	47.3	101	74.8	42.7	115	-	146	93.1	44.9	57.1
nutlin-3	162	334	249	199	165	-	207	186	217	143
FH535	62.6	123	59.4	171	77.5	72.1	65.8	122	147	96.0
lapatinib	133	151	293	74.5	89.5	-	92.5	111	85.9	148
NVP-BEZ235	113	367	295	133	74.8	-	292	380	123	70.5
perifosine	72.8	248	142	53.2	180	-	83.7	103	333	95.9
NVP-TAE684	59.8	57.4	299	68.9	67.2	80.6	135	50.4	131	69.6
darinaparsin	116	132	106	125	73.0	-	138	81.3	54.7	79.0
tozasertib	42.5	169	85.6	44.2	118	-	68.2	68.3	121	152
etoposide	33.4	39.5	196	172	34.6	-	101	161	44.6	111
midostaurin	220	242	161	181	-	-	132	51.1	366	162
dorsomorphin	39.5	136	210	136	104	221	64.2	68.8	88.1	40.9
vorinostat	49.6	81.5	180	49.9	42.0	-	39.4	66.9	62.4	69.7
LFM-A13	71.7	98.1	77.8	229	47.3	58.4	39.9	76.5	52.9	45.2
embelin	123	90.1	253	62.7	69.1	182	101	56.0	87.1	79.5
pazopanib	120	76.9	133	45.0	327	-	156	100	73.1	77.1

2 of the entries, repeated:

* stibogluconate : WM451Lu: 81.9; WM115: 102; UACC-62: 103; RVH-421: 24.5; LB2518-MEL: 59.5; WM3526: 108; A101D: 30.2; WM1716: 86.9; MeWo: 99.2
* cediranib : WM451Lu: 41.1; WM115: 82.0; UACC-62: 92.4; RVH-421: 153; LB2518-MEL: 69.0; WM3526: 89.2; A101D: 228; WM1716: 84.9; MeWo: 82.7